Experimental data from PubChem BioAssay AID1347075 (National Center for Advancing Translational Sciences (NCATS), 2019).
In all, about 400,000 compounds went through this assay and about 5,500 (1.4%) were called active. The inconclusive results got no clear call from the source; some entries with a clear call stand among them for comparison. Calls come from the whole dose curve; as a rule, active = well fitted cell-killing curve with a large enough effect; inconclusive = small, poorly fitted or top-dose-only effect, or effect the other way; inactive = flat fitted curve, though single readings scatter. A potency beside an inconclusive call is a rough fit, not a confirmed value.

experiment: qHTS assay for MDR1-selective chemotherapeutics: Primary screen using the parental adenocarcinoma cell KB-3-1; conditions: KB-3-1 viability, CellTiter-Glo ATP luminescence, 72 h; series mostly up to 46.1 µM; note: nearly all actives have a fitted effect of over 60% in size
Method in brief: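 Here the drug-naive KB-3-1 line serves as comparator for MDR sub-line selectivity; cells received compound titrations, 72 h at 37 °C, then CellTiter-Glo readout.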
Potency is the fitted concentration of half-maximal effect.

Compound	Potency
Cc1ccsc1/C=N/NC(=O)c1ccccn1	inconclusive: 9.2 µM [cytotoxic, partial curve]
CN1/C(=C/c2cccc[n+]2CCO)Sc2ccccc21	inconclusive: 23.1 µM [cytotoxic, partial curve]
O=C(Nc1ccc(CN2CCOCC2)cc1)c1ccc(Cl)cc1	inconclusive: 20.6 µM [cytotoxic, single point]
NC(Cc1ccc(F)cc1)c1csc(Nc2cc(Oc3ccccc3)ncn2)n1 (stereo unspecified)	inconclusive: 29.1 µM [cytotoxic, single point]
CN(C)/C=N/c1ncc(-c2ncc(C(F)(F)F)cc2Cl)cn1	inconclusive: 16.4 µM [cytotoxic, single point]
CCOC(=O)Cn1c(=O)n(-c2cccc(Cl)c2)c2nc(-c3ccccc3Cl)nc(C(N)=O)c21	inactive
CC(C)C[C@H](NC(=O)c1nc[nH]c1C(=O)NC(c1ccccc1)c1ccccc1)C(=O)OCc1ccccc1	inconclusive: 18.4 µM [cytotoxic, single point]
CCOC(=O)c1oc2ccc(S(=O)(=O)n3nc(-c4ccc(OC)cc4)cc3N)cc2c1C	inconclusive: 20.6 µM [cytotoxic, single point]
Cc1cccc(Nc2nc(-c3ccccn3)cs2)n1	active: 9.2 µM
COc1cccc(-c2cc(NC=O)c3ncc(-c4cccc(C(=O)N(C)C)c4)n3c2)c1	inconclusive: 29.1 µM [cytotoxic, single point]
CCSc1ccccc1C(=O)N1CCN(c2ccc([N+](=O)[O-])cc2)CC1	inconclusive: 29.1 µM [cytotoxic, partial curve, poor fit]
COc1ccc(-c2nc(NC(C)=O)sc2-c2ccc(OC)cc2)cc1	inconclusive: 25.9 µM [rising, single point]
COc1ccc(-c2cc(C(=O)N3CCN(C(c4ccccc4)c4ccccc4)CC3)no2)cc1	inconclusive: 20.6 µM [cytotoxic, partial curve, poor fit]
Cc1ccc(CSc2nnc([C@@H](N)C(C)C)o2)cc1	inactive
Cc1cc(C)c(NC(=O)NC(=O)c2cccc(F)c2)c(C)n1	inconclusive: 29.1 µM [rising, single point]
CSc1c(SCc2ccccc2)cnn(-c2ccccc2)c1=O	inactive
CCCn1c(CN(Cc2ccccc2)Cc2ccccc2)nc2c1c(=O)n(C)c(=O)n2C	inconclusive: 29.1 µM [cytotoxic, single point]
Cc1cccc(NC(=S)N2CCN(C(=O)c3ccco3)CC2)c1C	inactive
CCc1nc2ccc(C(=O)NC3CCN(Cc4ccccc4)CC3)cn2c1N(C)Cc1cc2ccccc2s1	inconclusive: 29.1 µM [cytotoxic, single point]
CCCOC(=O)CCCN1C(=O)/C(=C2\SC(=S)N(CCCC(=O)OCCC)C2=O)SC1=S	inconclusive: 18.4 µM [cytotoxic, partial curve, poor fit]
Cc1ccc(NC(=S)NCc2ccc3c(c2)cc(C)n3C)c(C)c1	inconclusive: 20.6 µM [cytotoxic, partial curve, poor fit]
CCC1CN(C(=O)N2CCC(C(=O)NCc3ccccc3OC)CC2)c2ccccc2O1 (stereo unspecified)	inconclusive: 32.6 µM [cytotoxic, partial curve, poor fit]

Compound	Potency
C(/Oc1ccccc1)=C1\Nn2c(nnc2-c2cc(-c3ccccc3)n[nH]2)S1	inconclusive: 0.517 µM [rising, full curve]
O=C(Nc1nnc(S(=O)(=O)N2CCOCC2)s1)c1ccc(Cl)cc1	inconclusive: 29.1 µM [cytotoxic, single point]
CC(=NNC(=S)N1CC2CCC(CC2)C1)c1cccc(C)n1	inconclusive: 0.0065 µM [cytotoxic, full curve, poor fit]
O=C(CN1CCCCC1)N1c2ccccc2CCc2ccccc21	inconclusive: 29.1 µM [cytotoxic, single point]
Cc1cccc(NC(=O)Cn2cc(S(=O)(=O)N3CCCC3)c(S(=O)(=O)N3CCCC3)c2)c1C	inconclusive: 8.2 µM [rising, partial curve, poor fit]
COc1ccc2oc(C(=O)OCC(=O)N3C(C)CCCC3C)c(C)c2c1 (stereo unspecified)	inactive
Cc1cc(NC2CCCCC2)nc(-c2ccccc2O)n1	inconclusive: 23.1 µM [cytotoxic, single point]
O=C(CN1C(=O)S/C(=C/c2cc(Br)cs2)C1=O)N1CCOCC1	inactive
COc1ccc(C2=NOC(C(=O)NC(C)C)C2)cc1 (stereo unspecified)	inconclusive: 29.1 µM [cytotoxic, partial curve, poor fit]
CCc1ccc(OCc2ccc(C(=O)NCc3ccccn3)o2)cc1	inactive
CSCCC(NS(=O)(=O)c1ccc2c(c1)oc(=O)n2C)C(=O)Nc1ccc(F)c(Cl)c1 (stereo unspecified)	inactive
COc1ccc(NC(=O)c2c(NCc3cccc(F)c3)sc3c2CCC3)c(OC)c1	inactive
N#CC1(Cc2ccccc2Cl)c2ccccc2C=CN1C(=O)c1ccccc1 (stereo unspecified)	inconclusive: 18.4 µM [cytotoxic, partial curve, poor fit]
CCOC(=O)c1cc2c(C)n(-c3ccc(C)cc3)c(C)c2ccc1=O	active: 20.6 µM
NC(=O)c1ccc[n+]([C@H]2O[C@@H](COP(=O)([O-])OP(=O)(O)OC[C@H]3O[C@@H](n4cnc5c(N)ncnc54)[C@H](O)[C@@H]3O)[C@H](O)[C@@H]2O)c1	inactive
Cc1cc(C(=O)NC2CCCc3c2cnn3-c2ccc(C(C)(C)C)cc2)n[nH]1 (stereo unspecified)	inconclusive: 11.6 µM [cytotoxic, partial curve]
Cc1ccc(-c2nc3ccc(C)cn3c2Cc2ccccn2)cc1	inactive
COc1ccc(-c2nsc(SCC(=O)NCC3CCCO3)n2)cc1 (stereo unspecified)	inconclusive: 16.4 µM [cytotoxic, partial curve, poor fit]
C[C@H](CO)N1C[C@H](C)[C@@H](CN(C)Cc2ccc(Oc3ccccc3)cc2)Oc2c(NC(=O)C3CC3)cccc2C1=O	inconclusive: 20.6 µM [cytotoxic, single point]
COc1ccc(C)cc1NC(=O)C(=O)NCCc1sc(-c2cccc(C)c2)nc1C	inconclusive: 29.1 µM [cytotoxic, single point]
N#Cc1nc(COc2ccccc2)oc1NCCN1CCOCC1	inactive
CC(C)CCOc1ccc(C2(C)NC(=O)N(CN3CCOCC3)C2=O)cc1 (stereo unspecified)	inactive

Compound	Potency
CC(=O)Nc1ccc(SCC(=O)c2cc(C)n(-c3ccccc3F)c2C)cc1	inconclusive: 23.1 µM [cytotoxic, single point]
CCOc1ccc(NS(=O)(=O)c2ccc(C(=O)NCCCN3CCCC3=O)cc2)cc1	inconclusive: 25.9 µM [cytotoxic, single point]
Cc1cc(C)c(S(=O)(=O)Nc2cccc3nsnc23)c(C)c1	active: 18.4 µM
COc1ccc(S(=O)(=O)N2CCCCC2)cc1NC(=O)CN(Cc1ccco1)Cc1ccco1	inactive
CCCCc1ccc(-n2nc3ccc(NC(=O)c4cc5ccccc5o4)cc3n2)cc1	inactive
Cc1cccnc1C(NC(=O)C1CCN(Cc2ccc(Cl)c(Cl)c2)CC1)c1ccc(Cl)cc1 (stereo unspecified)	inconclusive: 29.1 µM [cytotoxic, single point]
Cc1ccc(-c2cc3cccc[n+]3cc2-c2ccc(C)cc2)cc1	active: 4.61 µM
CCCc1ccc(OCc2nc(-c3ccc(NC(=O)c4ccco4)cc3)no2)cc1	inconclusive: 23.1 µM [cytotoxic, partial curve, poor fit]
Cc1ccc(C(CCNC(C)c2cccs2)c2ccco2)cc1 (stereo unspecified)	inconclusive: 20.6 µM [cytotoxic, single point]
COc1cc(C(C(=O)NC2CCCCC2)N(C(=O)c2cnccn2)c2ccccc2)cc(OC)c1OC (stereo unspecified)	inconclusive: 29.1 µM [cytotoxic, single point]
CC(=O)N1CCc2c(sc3c2c(=O)n(Cc2ccccc2)c(=O)n3Cc2ccc(Cl)cc2)C1	inconclusive: 14.6 µM [rising, partial curve, poor fit]
COc1ccccc1NC(=S)N(C(C)C)C(C)c1ccccn1 (stereo unspecified)	inactive
Cc1cccc(Cn2ccc(NC(=O)c3ccc4c(c3)OCO4)n2)c1	inactive
O=C(O)c1sc(Nc2ccccc2)nc1-c1ccccc1	inconclusive: 8.2 µM [rising, single point]
CC(=O)N1CCN(c2cccc(Nc3nn4c(=O)c5ccccc5nc4s3)c2)CC1	inactive
CCCCC(O)(c1ccc(F)cc1)C(CN1CCOCC1)c1ccc(Cl)cc1 (stereo unspecified)	inconclusive: 18.4 µM [cytotoxic, partial curve, poor fit]
O=C(O)CCC(=O)NNC(=O)COc1ccc2ccccc2c1Br	inactive
C=CCn1c(SCC(=O)Nc2cc(C)cc(C)c2)nnc1-c1cnccn1	inconclusive: 3.98 µM [rising, full curve]
COc1ccc(NC(=O)C2Cc3c(-c4ccc(Cl)cc4)ccnc3O2)cc1 (stereo unspecified)	inconclusive: 29.1 µM [cytotoxic, partial curve, poor fit]
O=C(NC1CCN(Cc2ccccc2)CC1)C1CCN(S(=O)(=O)c2cccc3nsnc23)CC1	inconclusive: 35.5 µM [cytotoxic, single point]
Cc1ccc(NC(=O)c2cccc3c(=O)c4c([nH]c23)CCCC4)c(C)c1	inconclusive: 2.06 µM [cytotoxic, single point]
O=C(COc1ccc([N+](=O)[O-])cc1)Nc1nc(-c2ccccn2)cs1	inconclusive: 13 µM [cytotoxic, partial curve, poor fit]
